PubChem BioAssay AID686943, Drosophila RNAi Screening Center, 2013
Purpose: 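Search across the genome for regulators of signalling from receptor tyrosine kinase to ERK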 (primary screen). Cells: Drosophila S2R+ haemocyte-like cells expressing YFP-tagged ERK (Rolled). Reagent: long dsRNA against Drosophila genes. Conditions: insulin stimulation versus unstimulated cells; dose and duration not given. Detection: 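Antibody staining for doubly phosphorylated ERK divided by ERK-YFP signal, as plate z-scores, in insulin-treated and untreated cells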. Reading the numbers: replicate 1, z-score of dpERK with insulin and replicate 2, z-score of dpERK with insulin: higher = more active ERK per ERK-YFP after insulin; replicate 1, z-score of dpERK under basal conditions: higher = more basal active ERK per ERK-YFP; replicate 1, z-score of ERK-YFP with insulin: higher = more YFP-tagged ERK signal.
In all, the deposit lists about 23,000 reagents; below is a random part of those with a known target gene and a result. 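Extra replicates exist only for a retested subset of genes; insulin dose and duration not given; both raised and lowered dpERK matter.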 A plus sign joins genes that one reagent is predicted to hit. Reagent sequences are not shown. Not stated in the record: the amount of reagent, the time to read-out.

gene | amplicon | replicate 1, z-score of dpERK with insulin | replicate 2, z-score of dpERK with insulin | replicate 1, z-score of dpERK under basal conditions | replicate 1, z-score of ERK-YFP with insulin
CG10011 | DRSC14174 | -0.69 | -0.21 | -0.9 | 0.21
CG8944 | DRSC20128 | -0.5 | 0.7 | 1.93 | 0.15
CG8944 | DRSC21342 | 0.32 | 0.75 | -0.29 | 1.23
Tengl4 | DRSC15620 | 0.83 | 0.04 | -0.42 | -0.51
sofe | DRSC19751 | -0.37 | -0.11 | -0.25 | 0.94
U4-U6-60K | DRSC10624 | 0.88 | 0.61 | -0.12 | 0.39
CG6495 | DRSC01993 | -0.18 | 0.35 | 0.19 | 0.9
Drgx | DRSC00278 | 0.19 | 0.32 | -0.25 | 0.18
Drgx | DRSC00537 | 0.04 | -0.53 | 0.21 | 1.38
CG31697 | DRSC22273 | -0.57 | 0.81 | 0.02 | -1.38
CG31922 | DRSC21703 | -0.71 | 0.85 | 0.14 | 0.27
CR33283 | DRSC22918 | -0.09 | -0.1 | -0.74 | 0.24
CG34034 | DRSC13506 | -0.91 | 0.61 | -0.11 | -0.47
CG1552 | DRSC19665 | 0.02 | -0.5 | 1.59 | -0.14
ana2 | DRSC05952 | -0.42 | 0.32 | 1.13 | 0.31
Cyp9c1 | DRSC04607 | -0.31 | -0.92 | -0.76 | 0.14
CG15358 | DRSC00388 | 0.79 | 0.48 | -0.37 | 0.1
CG6051 | DRSC15956 | 1.98 | -0.15 | -0.2 | -1.71
CG14085 | DRSC10089 | 0.72 | 0.41 | 0.37 | 0.52
CG7201 | DRSC10786 | 0.74 | 0.56 | -0.71 | 0.79
trol | DRSC17714 | 0.72 | 0.41 | -0.29 | -0.54
trol | DRSC17718 | -0.76 | -0.98 | -0.92 | -1.01
trol | DRSC18613 | -0.45 | 0.14 | 0.4 | 0.66
trol | DRSC18814 | 0.01 | 0.43 | 1.43 | 0.41
Send2 | DRSC01906 | 0.79 | -0.41 | 0.35 | -0.05
Cka | DRSC03476 | -0.05 | 0.08 | 1.19 | -0.26
Cka | DRSC22858 | -5.09 | -1.93 | -0.4 | 0.62
Bfc | DRSC08623 | 1.03 | 0.44 | -0.03 | 0.1
CG11585 | DRSC19410 | 0.12 | 0.58 | -0.23 | 0.46
sstn | DRSC10753 | -0.1 | 0.06 | -0.71 | -1.54
Alp12 | DRSC02515 | 0.11 | -0.02 | 0.16 | 0.67
Psn | DRSC11743 | 0.06 | -0.66 | -0.69 | -0.23
CG8908 | DRSC07297 | 0.13 | -0.44 | 1.31 | 0.08
CG17168 | DRSC20904 | 0.59 | 0.4 | -1.25 | 0.22
MESK2 + CG10494 | DRSC04259 | 0.14 | -0.76 | -0.65 | 1.54
Prim1 | DRSC11137 | -0.31 | 0.66 | -0.07 | 0.53
CG6675 | DRSC03735 | 0.73 | 0.15 | 0.55 | -0.01
Spn88Eb | DRSC16093 | -0.14 | -0.3 | 2 | 0.52
CG15255 | DRSC01869 | -0.84 | 0.03 | -0.61 | -1.84
CG17698 | DRSC11907 | 0.45 | 0.52 | 0.01 | 0.23
GstE10 | DRSC06671 | 0.29 | 0.08 | 0.53 | 0.03
nmd | DRSC02856 | 0.71 | -0.3 | 0.56 | 0.42
CG11413 + CG4622 | DRSC04109 | -0.28 | -0.56 | -0.65 | -1.19
kairos | DRSC19972 | 0.47 | 0.08 | -0.37 | -1.02
CG5783 | DRSC02894 | -0.71 | -1.18 | -0.71 | 0.18
NetA | DRSC20261 | 0.1 | 0.53 | -0.73 | 0.1
sprt | DRSC07323 | 0.46 | 0.24 | 0.28 | 0.51
CG7148 | DRSC11802 | 0.14 | 0 | -0.29 | 0.41
Tbcb | DRSC06067 | -0.83 | 0.44 | 0.48 | 0.53
CG12147 | DRSC12192 | -0.84 | -0.33 | -0.33 | 0.85
Nmd3 | DRSC18687 | 0.42 | 1.08 | -0.75 | -0.09
Nmd3 | DRSC22834 | -0.1 | -0.14 | 0.03 | -0.81
Ptip | DRSC10660 | -0.13 | 1.18 | -0.79 | 0.03
Ptip | DRSC11048 | 0.89 | -2.31 | -2.5 | 0.52
CG32170 | DRSC09452 | 0.37 | 0.9 | -1 | -0.09
CG18262 | DRSC18149 | -0.99 | 0.35 | 1.85 | 1.54
koko + Vti1b | DRSC16283 | 1.56 | -0.47 | 0.55 | -0.72
koko + Vti1b | DRSC16284 | 0.87 | 0.29 | 0.54 | -0.23
